PubChem BioAssay AID1159584, Peter MacCallum Cancer Centre, 2016
The deposit covers about 18,000 reagents; shown is a random part of them. No sequences are given here. Not given: the amount of reagent, the time to read-out.

Assay: 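Knock-downs that harm CDH1-null cells more than parental MCF10A cells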 (primary screen)
Cells: human MCF10A breast epithelial cells, parental and CDH1-null
Reagents: siRNA against human genes
Read-out: 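ATP luminescence (CellTiter-Glo) viability per line relative to mean mock wells over all plates, and the ratio of CDH1-null to parental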
Direction: CDH1-null / parental viability ratio: higher = CDH1-null cells survive relatively better than parental; CDH1-null viability vs mock: higher = more viable CDH1-null cells; parental viability vs mock: higher = more viable parental cells

CDH1-null / parental viability ratio | CDH1-null viability vs mock (fraction of mock) | parental viability vs mock (fraction of mock) | gene symbol
0.85 | 0.61 | 0.72 | POLR3H
0.77 | 0.46 | 0.6 | LRRC1
1.68 | 0.89 | 0.53 | NT5C1B
0.95 | 0.8 | 0.84 | BLOC1S2
0.92 | 0.7 | 0.76 | VGLL1
0.56 | 0.4 | 0.71 | COL9A1
0.92 | 0.46 | 0.5 | AHCTF1
0.71 | 0.64 | 0.9 | AMPD2
0.87 | 0.8 | 0.92 | FOXD4L6
0.92 | 0.72 | 0.78 | CDH22
1.71 | 0.77 | 0.45 | PTPRH
1.45 | 0.84 | 0.58 | CARD14
0.96 | 0.69 | 0.72 | CNTNAP3
1.02 | 1 | 0.98 | ASB9
0.93 | 0.83 | 0.89 | JAKMIP1
1.05 | 0.96 | 0.91 | RBMY1E
0.94 | 0.6 | 0.64 | NOD2
1.05 | 1.06 | 1.01 | KIAA0319
0.91 | 0.31 | 0.34 | DEFB105B
0.85 | 0.82 | 0.97 | CLIP1
1.13 | 0.96 | 0.85 | DIPK2A
1.74 | 0.73 | 0.42 | TSPAN8
0.96 | 0.79 | 0.82 | PAX8
1.48 | 0.89 | 0.6 | AGTRAP
1.02 | 0.99 | 0.97 | RC3H2
0.94 | 0.88 | 0.94 | MEIG1
1.13 | 0.85 | 0.75 | PCK1
1.18 | 0.66 | 0.56 | ITCH
1.22 | 0.9 | 0.74 | FOXP2
0.83 | 0.67 | 0.81 | FBXL6
1.26 | 0.91 | 0.72 | HNF1A
0.91 | 0.6 | 0.66 | SSBP3
0.91 | 0.6 | 0.66 | TSHZ3
1.02 | 0.9 | 0.88 | NUS1
0.76 | 0.38 | 0.5 | TTC21A
0.98 | 0.9 | 0.92 | CH25H
0.77 | 0.62 | 0.8 | HSPB6
0.95 | 0.7 | 0.74 | GSTM2
0.98 | 0.9 | 0.92 | GPR135
1.19 | 1.21 | 1.02 | TEAD4
1.25 | 0.65 | 0.52 | SHH
1.38 | 0.76 | 0.55 | EFCAB11
0.93 | 1.04 | 1.12 | CMYA5
0.9 | 0.8 | 0.89 | CHST13
0.95 | 0.92 | 0.97 | PITPNA
0.76 | 0.56 | 0.74 | RBM22
1 | 0.64 | 0.64 | IGF2BP2-AS1
1.13 | 1.32 | 1.17 | TYMP
1.06 | 1.06 | 1 | KRT9
0.89 | 0.85 | 0.96 | GPR34
1.22 | 0.83 | 0.68 | KCTD13
0.75 | 0.48 | 0.64 | CDS2
0.77 | 0.64 | 0.83 | RSPO2
0.88 | 0.68 | 0.77 | HBZ
0.98 | 0.84 | 0.86 | AKR1C6P
0.96 | 0.68 | 0.71 | SV2B
0.89 | 0.78 | 0.88 | OR2F2
1.04 | 0.98 | 0.94 | PAPLN
0.8 | 0.74 | 0.92 | SYNE3
1.56 | 0.64 | 0.41 | ENTREP1
1.27 | 0.38 | 0.3 | RPL26
1.23 | 0.86 | 0.7 | EML4
1.05 | 0.85 | 0.81 | SH2D3A
1.13 | 1.02 | 0.9 | ADAMTS5
0.78 | 0.4 | 0.51 | ANKRD16
0.73 | 0.64 | 0.88 | CYP8B1
0.68 | 0.49 | 0.72 | ZNF433
0.82 | 0.51 | 0.62 | ZNF668
